# From PubChem BioAssay AID493014 (National Center for Advancing Translational Sciences (NCATS), 2011)
# The campaign covered roughly 340,000 compounds. About 170 (0.05%) were called active. The inconclusive results got no clear call from the source; some entries with a clear call stand among them for comparison. The call rests on the fitted dose curve; in most records, active means well fitted inhibition curve with a large enough effect in the signal ratio, with a control signal flat (not every such curve was filed as active); inconclusive means small, poorly fitted or top-dose-only effect, or effect the other way, or a change in a side signal; inactive means flat fitted curve, though single readings scatter; the % refers to the signal ratio. Potencies beside an inconclusive call are fits to weak or partial responses and may not hold up.
# Test: qHTS Assay to Find Inhibitors of Chronic Active B-Cell Receptor Signaling;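 on activity change, negative = inhibition: plate controls were basal doxycycline-induced cells for no effect and cells given 10 µM MG132 for full effect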
# Details: ABC-DLBCL IkBa-CBG/CBR reporter, luminescence ratio (green luciferase fused to IkBa over red control in TMD8 lymphoma cells), 4 h; activity change, negative = inhibition: at 46.1 µM (top of the series)
# How it was run: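 Cell line TMD8 (human ABC DLBCL), stably expressing tet-inducible CBG68-IkBa fusion and CBR; IMDM/0.5% FBS; cpd up to 46 uM; dox induction, 4 h, 37C/5% CO2; dual luminescence; green/red ratio; MG132 control.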
# Potency means the concentration at half of the fitted maximal effect.
SMILES,"activity change, negative = inhibition",Potency
Cc1ccc(C(=O)NCC#N)cc1,inactive: 6.64%,–
CC(C)(C)c1cc(-c2ccccc2)no1,inconclusive: -0.802%,–
O=C(Nc1c2ccccc2nc2ccccc12)C(Cl)(Cl)Cl,inactive: 0.918%,–
CC1CCCN(C(=O)CSCC(=O)Nc2nc(-c3cccs3)cs2)C1 (stereo not given),inconclusive: -7.69%,–
O=C(CSc1ncnc2ccccc12)Nc1cccc(S(=O)(=O)N2CCCC2)c1,inconclusive: -8.29%,–
CCOC(=O)Cc1nnc(NC(=O)C(CC)Sc2nc(C)cc(C)n2)s1 (stereo not given),inconclusive: 7.59%,–
CSc1cc(-c2ccncc2)nc(-c2ccc(Cl)cc2)c1,inconclusive: 1.93%,–
CCOc1ccc(Br)cc1S(=O)(=O)Nc1ccc(Cl)c(S(=O)(=O)N(C)C)c1,inconclusive: 4.93%,–
N/C(=N\OC(=O)c1cccc2ccccc12)c1ccccn1,–,"inconclusive: 35.5 µM [rising, single point]"
CCOC(=O)c1c(-c2ccc3ccccc3c2)csc1NC(=O)CCCC(=O)O,inconclusive: 5.41%,–
CCn1cc(C(=O)O)c(=O)c2cnc(N3CCN(C(=S)NC(=O)c4ccccc4Cl)CC3)nc21,inconclusive: 0.879%,–
S=c1nc(-c2ccccc2)[nH]c2ccc(Br)cc12,inconclusive: 18%,–
CCCc1ccc(OCc2ccc(C(=O)NCc3cccnc3)o2)c(OC)c1,–,"inconclusive: 12.6 µM [falling, partial curve, poor fit]"
CC(=O)c1ccccc1OCCn1nc(C(=O)O)c2ccccc2c1=O,inactive: 10.1%,–
Cc1ccc(C(=O)Nc2ccccc2C(=O)NC(Cc2c[nH]c3ccccc23)C(=O)O)cc1 (stereo not given),–,"inconclusive: 17.8 µM [falling, single point]"
CC(C)C(=O)Nc1ccc(NC(=O)c2cc3ccccc3o2)cc1,inconclusive: 17.7%,–
Cc1cc(OCC(=O)Nc2ccccc2C)no1,–,"inconclusive: 20.6 µM [falling, partial curve]"
S=C(Nc1ccc(N2CCOCC2)cc1)Nc1ccc2nc(-c3ccco3)c(-c3ccco3)nc2c1,inconclusive: 20.7%,–
COc1ccc(S(=O)(=O)N2CCN(CC(=O)Nc3sccc3C(N)=O)CC2)cc1OC,inactive: -4.33%,–
NC(N)=Nc1nc2ccc([N+](=O)[O-])cc2[nH]1,inconclusive: 11%,–
COc1cc(C#Cc2c(-c3cncn3C)n(C)c3ccc(-c4cc(OC)c(OC)c(OC)c4)cc23)cc(OC)c1,–,"inconclusive: 18.4 µM [falling, partial curve, poor fit]"
Oc1c(N=NC(=S)Nc2ccccc2F)c2ccccc2n1Cc1ccccc1F,inconclusive: -29%,–
COc1cc2c(C#Cc3cccnc3)c(-c3ccsc3)oc(=O)c2cc1OC,inconclusive: 1.46%,–
Cc1ccc(N=Nc2c(N)nn3c(C)cc(C)nc23)cc1,inconclusive: -0.84%,–
N#C/C(=C\c1ccc(N2CCOCC2)o1)C(=O)Nc1ccc(O)cc1,inconclusive: 402%,–
C=CCNC(=S)N/N=C/c1ccc(C(C)(C)C)cc1,–,active: 11.2 µM
COc1ccccc1C1CCN(Cc2cccc([N+](=O)[O-])c2)CC1,inactive: -1.03%,–
COc1ccc(CC(=O)NC2CC(=O)N(c3ccc4c(c3)OCCO4)C2)cc1 (stereo not given),inactive: -0.752%,–

# Rewritten bar-delimited: 2 of the compounds above.
SMILES | activity change, negative = inhibition | Potency
Cc1ccc(C(=O)Nc2ccccc2C(=O)NC(Cc2c[nH]c3ccccc23)C(=O)O)cc1 (stereo not given) | – | inconclusive: 17.8 µM [falling, single point]
COc1cc(C#Cc2c(-c3cncn3C)n(C)c3ccc(-c4cc(OC)c(OC)c(OC)c4)cc23)cc(OC)c1 | – | inconclusive: 18.4 µM [falling, partial curve, poor fit]

# Next part:

SMILES,"activity change, negative = inhibition",Potency
Cc1cccc(OCc2nc3ccccc3n2C)c1,inconclusive: 5.37%,–
COC(=O)CC1=NN(c2nc3ccccc3s2)C(=O)/C1=C/N(C)C,–,"inconclusive: 6.31 µM [rising, single point]"
Cc1ccc(N)c2c1OCCC2=O,inactive: -0.708%,–
CCNC(=S)Nc1cccc(NC(=O)c2ccccc2O)c1,–,"inconclusive: 35.5 µM [falling, single point]"
CCCCSCc1cc(C(=O)O)oc1C(C)(C)C,inconclusive: 9.9%,–
N#Cc1c(NCCCO)nc(NCc2ccccc2)c2c1CCN(Cc1ccccc1)C2,inconclusive: 5.58%,–
O=C(Nc1ccc(-c2nc3ccccc3[nH]2)cc1)c1c(F)c(F)c(F)c(F)c1F,inconclusive: -2.87%,–
CC1CCN(c2nc(/C=C/c3ccccc3)nc3ccccc23)CC1,inconclusive: 14.3%,–
Cc1ccc(O)c(-c2cc(C(F)(F)F)[nH]n2)c1,inconclusive: 8.03%,–
O=C(c1ccccn1)C1CCCN(Cc2cn[nH]c2-c2cc3ccccc3o2)C1 (stereo not given),inconclusive: -2.3%,–
Cc1ccc(C(=O)NC2(C(F)(F)F)NC(=O)N(c3ccc(Cl)cc3)C2=O)cc1 (stereo not given),inactive: -3.19%,–
Cc1cc(Nc2sc(C(=O)c3ccc(F)cc3)c(N)c2C(=O)Nc2ccc(F)cc2)ccc1Cl,inconclusive: 1.79%,–
Cc1noc(C)c1CSCC(=O)N(C)CC(=O)Nc1ccccc1C(F)(F)F,inactive: 1.02%,–
CCOC(=O)c1c(NC(=O)CNCCOC)sc2c1CCCC2,–,"inconclusive: 6.51 µM [rising, partial curve, poor fit]"
NC(=O)c1ccccc1NC(=O)NC1CCCCC1,–,"inconclusive: 20.6 µM [falling, single point]"
O=C(CN(Cc1ccc(Br)cc1)S(=O)(=O)c1ccccc1)NCc1ccncc1,inactive: -1.57%,–
CC(C)Cc1ccccc1O,inactive: -13.6%,–
CCOC(=O)C1CCN(C(=O)c2cc3cc4cc(OC)ccc4nc3o2)CC1,–,"inconclusive: 2.06 µM [rising, full curve, poor fit]"
COc1ccc(NC(=O)C2(c3cccs3)CCOCC2)cc1Cl,inconclusive: 22.3%,–
Cc1cccc[n+]1CCCCCCCCCC[n+]1ccccc1C,inactive: 1.31%,–
C/C(=C\c1ccc(F)cc1)C(=O)c1c(C)cc(C)[nH]c1=O,inactive: -2.4%,–
COc1ccc(S(=O)(=O)NC(CC(=O)NCCc2ccccc2)c2ccco2)cc1 (stereo not given),inconclusive: 13.1%,–
CNc1ccc(/C=C(\CCC(=O)O)c2nc3ccccc3s2)cc1[N+](=O)[O-],inconclusive: -0.0006%,–
COc1ccc(CC(=O)Nc2nnc(SCc3ccccc3)s2)cc1S(=O)(=O)N1CCOCC1,inconclusive: 9.67%,–
CCC(C)[C@H]1CN=C(N)N1CCc1cc(C(F)(F)F)cc(C(F)(F)F)c1 (stereo not given in full),inactive: -1.22%,–
Fc1ccccc1N1CCN(CCCc2ccccc2)CC1,inconclusive: 6.89%,–
COc1cccc(NC(=O)CN(C2=NC3CS(=O)(=O)CC3S2)c2cccc(C)c2)c1 (stereo not given),–,"inconclusive: 25.1 µM [falling, single point]"
